Measurements: patent publication US20190292155A1, “THERAPEUTIC INHIBITORY COMPOUNDS” (LifeSci Pharmaceuticals, Inc., priority 2016, published 2019)
The structures given here were assigned with low confidence; some may be wrong.

The chains behind the UniProt entries cited, without tags or fusion partners. Residues count along the entry.
UniProt P00746, 26-253 limits assumed: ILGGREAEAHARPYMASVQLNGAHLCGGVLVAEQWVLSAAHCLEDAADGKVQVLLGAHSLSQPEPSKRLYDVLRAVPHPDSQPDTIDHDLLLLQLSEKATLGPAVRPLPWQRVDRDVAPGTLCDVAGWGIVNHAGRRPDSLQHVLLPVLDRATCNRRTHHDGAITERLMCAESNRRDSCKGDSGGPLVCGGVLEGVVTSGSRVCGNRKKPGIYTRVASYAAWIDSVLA

Target: human complement factor D (Homo sapiens, UniProt P00746)
Assay: In vitro enzyme inhibition of human complement factor D (Z-Lys-SBzl/DTNB, A405)
Conditions: read-out: CFD IC50; biochemical assay, substrate Z-Lys-SBzl

| Structure (SMILES) | IC50 |
| --- | --- |
| NC(=O)c1nn(CC(=O)N(CC(=O)NCc2cccc(F)c2Cl)C(CF)CF)c2ccccc12 | 1000 to 10000 nM |
| CC(CCN)N(CC(=O)NCc1cccc(F)c1Cl)C(=O)Cn1nc(C(N)=O)c2ccccc21 (centres unmarked) | 100 to 1000 nM |
